The test system of this data set is Cbf5 + Nop10 + Gar1 + Nhp2. Kind of data set: filter binding. As to conditions: RNP with snR30 (N1), 20 mM HEPES-KOH pH 7.4, 150 mM NaCl, 1.5 mM MgCl2, 10% glycerol, 30°C, 10 min, nitrocellulose filtration, recombinant protein, label: 3H-UTP, probe letters rebuilt from the primers and the genome.

The exact form of at least one protein or probe is not confirmed.

On to “GGGCCGACUAGGGAUCGGGUGGUGUUUUUUUAAUGACCCACUCGGCACCUUACGAGAAAUCAAAGUCUUUGGGU [H25/26]”, for which the Kd (as a rule, the free concentration of one partner at which half of the binding sites on the other are occupied at equilibrium, for simple one-to-one binding) (amplitude 410%) is 225 nM.

For the sequence “GGGUUAAUAGGGACGGUCGGGGGCAUCAGUAUUCAAUUGUCAGAGGUGAAAUUCUUGGAUUUAUUGAAGACUAACUACUGCGAAAGCAUUUGCCAAGGACGUUUUC [H22/23]”, the dissociation constant Kd by setting is: (1 µM E. coli tRNAPhe) 459 nM; (amplitude 1280%) 276 nM.

These data come from paper PMC9176245.
